According to publication doi:10.1101/2021.05.11.443658 (bioRxiv, 2021):
No constants are given. Whether binding was seen depends on the method and setting. For some assays here: Binding seen in cells or lysates may run through a third protein. Some entries that bind do so weakly or less than the wild type. Tags and fused reporters may be left off the sequences shown.

Chains of the proteins cited; added tags and fusions are not shown.
UniProt Q10PZ9: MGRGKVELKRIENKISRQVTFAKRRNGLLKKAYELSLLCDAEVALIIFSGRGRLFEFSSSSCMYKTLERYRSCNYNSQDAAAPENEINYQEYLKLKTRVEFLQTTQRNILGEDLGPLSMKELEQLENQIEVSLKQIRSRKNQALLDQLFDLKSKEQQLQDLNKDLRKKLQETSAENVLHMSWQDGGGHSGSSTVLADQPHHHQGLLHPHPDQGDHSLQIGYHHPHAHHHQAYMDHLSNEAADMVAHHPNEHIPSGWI

T1: OsbZIP47ΔC fused to the Gal4 DNA-binding domain (yeast two-hybrid bait) (rice (Oryza sativa)) (UniProt Q5Z6N9)
T1 sequence: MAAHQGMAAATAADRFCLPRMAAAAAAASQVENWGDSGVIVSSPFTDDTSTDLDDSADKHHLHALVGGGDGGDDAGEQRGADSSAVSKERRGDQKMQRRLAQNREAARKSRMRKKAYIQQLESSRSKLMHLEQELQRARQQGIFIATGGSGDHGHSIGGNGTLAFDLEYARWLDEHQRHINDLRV

B1: OSH1 fused to the GAL4 activation domain (yeast two-hybrid prey) (protein, UniProt P46609 1-361)
chain: MEEISHHFGVVGASGVHGGHQHQHHHHPWGSSLSAIVAPPPPPQLQQQQTQAGGMAHTPLTLNTAAAAVGNPVLQLANGSLLDACGKAKEASASASYAADVEAIKAKIISHPHYSSLLAAYLDCQKVGAPPEVAARLTAVAQDLELRQRTALGVLGAATEPELDQFMEAYHEMLVKYREELTRPLQEAMEFLRRVETQLNTLSISGRSLRNILSSGSSEEDQEGSGGETELPEIDAHGVDQELKHHLLKKYSGYLSSLKQELSKKKKKGKLPKDARQQLLNWWELHYKWPYPSESQKVALAESTGLDLKQINNWFINQRKRHWKPSDEMQFVMMDGYHPTNAAAFYMDGHFINDGGLYRLG
B2: RFL fused to the GAL4 activation domain (yeast two-hybrid prey) (protein, UniProt Q0JAI1 1-389)
chain: MDPNDAFSAAHPFRWDLGPPAPAPVPPPPPPPPPPPPANVPRELEELVAGYGVRMSTVARISELGFTASTLLAMTERELDDMMAALAGLFRWDLLLGERFGLRAALRAERGRLMSLGGRHHGHQSGSTVDGASQEVLSDEHDMAGSGGMGDDDNGRRMVTGKKQAKKGSAARKGKKARRKKVDDLRLDMQEDEMDCCDEDGGGGSESTESSAGGGGGERQREHPFVVTEPGEVARAKKNGLDYLFHLYEQCRLFLLQVQSMAKLHGHKSPTKVTNQVFRYAKKVGASYINKPKMRHYVHCYALHCLDEEASDALRRAYKARGENVGAWRQACYAPLVDISARHGFDIDAVFAAHPRLAIWYVPTRLRQLCHQARSSHAAAAAALPPPLF
B3: RFL nYFP fusion protein (BiFC) (protein, UniProt Q0JAI1 1-389)
chain: B2 chain

Key:
[1] = target: OsbZIP47ΔC-cYFP fusion protein (BiFC) (rice (Oryza sativa)) (UniProt Q5Z6N9); assay: split reporter
[2] = target: T1, OsbZIP47ΔC fused to the Gal4 DNA-binding domain (yeast two-hybrid bait) (rice (Oryza sativa)); assay: two-hybrid

Molecule	binding [1]	binding [2]
OSH1 nYFP fusion protein (BiFC) (from UniProt P46609 1-361)	binds	
OsMADS1 nYFP fusion protein (BiFC) (from UniProt Q10PZ9 1-257)	binds	
B1		binds
B2		binds
B3	binds	
